Results are given in words; binding and its absence hold for the method and conditions named. In cells and extracts the contact can be indirect.

Protein sequences, listed by entry. Tags and fused reporters are not part of them. Lines headed by an entry give the natural chain unless they say otherwise; changes in a name come on top. Residues count along the entry.
UniProt Q9JMH9: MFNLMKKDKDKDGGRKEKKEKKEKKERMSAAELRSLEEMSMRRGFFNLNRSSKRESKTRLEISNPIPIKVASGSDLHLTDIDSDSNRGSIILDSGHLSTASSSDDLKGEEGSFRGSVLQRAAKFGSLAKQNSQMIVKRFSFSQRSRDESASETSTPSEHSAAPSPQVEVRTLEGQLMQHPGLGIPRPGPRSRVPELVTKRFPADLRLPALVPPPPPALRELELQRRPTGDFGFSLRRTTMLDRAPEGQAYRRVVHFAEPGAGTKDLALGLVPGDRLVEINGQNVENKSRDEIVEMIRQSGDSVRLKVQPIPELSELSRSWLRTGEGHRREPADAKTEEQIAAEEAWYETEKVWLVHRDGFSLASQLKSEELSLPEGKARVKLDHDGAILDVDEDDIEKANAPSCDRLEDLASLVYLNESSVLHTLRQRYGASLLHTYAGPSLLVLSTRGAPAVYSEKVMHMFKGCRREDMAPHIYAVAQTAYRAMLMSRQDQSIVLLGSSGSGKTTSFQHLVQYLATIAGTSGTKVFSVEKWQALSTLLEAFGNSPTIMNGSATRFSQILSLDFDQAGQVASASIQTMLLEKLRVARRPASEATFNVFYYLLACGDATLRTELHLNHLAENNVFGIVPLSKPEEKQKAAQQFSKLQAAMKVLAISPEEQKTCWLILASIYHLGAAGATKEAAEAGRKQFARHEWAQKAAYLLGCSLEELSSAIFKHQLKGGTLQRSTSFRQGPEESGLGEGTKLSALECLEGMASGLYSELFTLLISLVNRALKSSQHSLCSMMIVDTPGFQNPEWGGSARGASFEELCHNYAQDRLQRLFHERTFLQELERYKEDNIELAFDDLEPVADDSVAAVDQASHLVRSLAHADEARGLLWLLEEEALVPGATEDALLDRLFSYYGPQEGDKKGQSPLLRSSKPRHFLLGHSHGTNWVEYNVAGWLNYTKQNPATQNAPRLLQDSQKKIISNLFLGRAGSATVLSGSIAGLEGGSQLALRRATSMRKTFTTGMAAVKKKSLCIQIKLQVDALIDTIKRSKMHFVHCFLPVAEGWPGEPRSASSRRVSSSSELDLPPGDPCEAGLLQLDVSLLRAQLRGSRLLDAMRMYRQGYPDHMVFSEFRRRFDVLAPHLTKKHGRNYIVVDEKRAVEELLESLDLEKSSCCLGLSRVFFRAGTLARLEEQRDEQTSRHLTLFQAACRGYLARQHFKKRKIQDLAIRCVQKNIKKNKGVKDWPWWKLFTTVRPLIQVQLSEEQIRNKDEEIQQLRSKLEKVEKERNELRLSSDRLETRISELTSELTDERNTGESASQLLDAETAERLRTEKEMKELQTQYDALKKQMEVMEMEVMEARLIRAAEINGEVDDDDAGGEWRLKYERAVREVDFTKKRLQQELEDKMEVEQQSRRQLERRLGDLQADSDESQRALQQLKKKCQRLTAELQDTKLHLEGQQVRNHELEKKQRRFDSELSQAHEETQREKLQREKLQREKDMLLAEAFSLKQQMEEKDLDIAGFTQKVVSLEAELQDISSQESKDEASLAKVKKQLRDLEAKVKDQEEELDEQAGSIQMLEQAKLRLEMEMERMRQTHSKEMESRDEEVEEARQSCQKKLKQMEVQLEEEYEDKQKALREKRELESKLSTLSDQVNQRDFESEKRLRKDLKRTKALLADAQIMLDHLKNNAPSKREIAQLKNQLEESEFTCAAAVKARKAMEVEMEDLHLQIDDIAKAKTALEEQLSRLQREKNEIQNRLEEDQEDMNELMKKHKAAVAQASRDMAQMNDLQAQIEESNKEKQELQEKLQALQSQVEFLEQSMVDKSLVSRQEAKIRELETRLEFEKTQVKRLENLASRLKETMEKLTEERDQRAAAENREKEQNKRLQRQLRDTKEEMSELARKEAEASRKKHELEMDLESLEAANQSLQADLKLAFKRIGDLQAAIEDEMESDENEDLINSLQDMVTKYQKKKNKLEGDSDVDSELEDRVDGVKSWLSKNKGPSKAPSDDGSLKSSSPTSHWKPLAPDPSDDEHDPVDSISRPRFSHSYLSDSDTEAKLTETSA
UniProt P05555, residues 17-1153: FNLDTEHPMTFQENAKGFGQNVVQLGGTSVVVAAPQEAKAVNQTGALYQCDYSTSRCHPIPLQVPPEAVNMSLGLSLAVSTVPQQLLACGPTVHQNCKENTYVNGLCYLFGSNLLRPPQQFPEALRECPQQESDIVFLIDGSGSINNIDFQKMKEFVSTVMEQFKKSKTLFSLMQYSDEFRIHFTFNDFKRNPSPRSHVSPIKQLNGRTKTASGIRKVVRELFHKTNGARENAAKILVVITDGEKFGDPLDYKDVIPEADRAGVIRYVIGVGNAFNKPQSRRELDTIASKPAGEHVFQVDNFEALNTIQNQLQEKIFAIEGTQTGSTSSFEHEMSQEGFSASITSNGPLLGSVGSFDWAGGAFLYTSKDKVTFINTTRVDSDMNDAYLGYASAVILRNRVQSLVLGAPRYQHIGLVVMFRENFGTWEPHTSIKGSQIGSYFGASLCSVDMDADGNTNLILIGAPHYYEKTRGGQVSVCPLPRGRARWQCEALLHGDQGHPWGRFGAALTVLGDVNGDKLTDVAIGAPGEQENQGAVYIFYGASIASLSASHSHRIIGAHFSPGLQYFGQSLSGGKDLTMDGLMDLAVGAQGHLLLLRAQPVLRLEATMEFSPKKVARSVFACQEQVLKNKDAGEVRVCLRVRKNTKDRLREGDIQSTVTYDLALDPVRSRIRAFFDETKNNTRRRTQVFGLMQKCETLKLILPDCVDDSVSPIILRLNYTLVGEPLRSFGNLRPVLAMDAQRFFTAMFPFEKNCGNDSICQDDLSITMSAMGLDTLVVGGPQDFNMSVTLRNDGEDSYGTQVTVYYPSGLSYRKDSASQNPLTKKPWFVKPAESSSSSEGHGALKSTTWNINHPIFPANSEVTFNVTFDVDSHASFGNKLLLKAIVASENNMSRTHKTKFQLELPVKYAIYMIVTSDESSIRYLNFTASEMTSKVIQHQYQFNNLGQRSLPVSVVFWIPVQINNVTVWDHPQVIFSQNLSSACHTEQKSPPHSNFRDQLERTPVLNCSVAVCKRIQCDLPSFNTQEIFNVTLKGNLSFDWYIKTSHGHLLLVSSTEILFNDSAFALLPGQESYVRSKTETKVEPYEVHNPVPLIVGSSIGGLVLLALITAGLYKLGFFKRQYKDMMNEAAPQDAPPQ
UniProt Q08857: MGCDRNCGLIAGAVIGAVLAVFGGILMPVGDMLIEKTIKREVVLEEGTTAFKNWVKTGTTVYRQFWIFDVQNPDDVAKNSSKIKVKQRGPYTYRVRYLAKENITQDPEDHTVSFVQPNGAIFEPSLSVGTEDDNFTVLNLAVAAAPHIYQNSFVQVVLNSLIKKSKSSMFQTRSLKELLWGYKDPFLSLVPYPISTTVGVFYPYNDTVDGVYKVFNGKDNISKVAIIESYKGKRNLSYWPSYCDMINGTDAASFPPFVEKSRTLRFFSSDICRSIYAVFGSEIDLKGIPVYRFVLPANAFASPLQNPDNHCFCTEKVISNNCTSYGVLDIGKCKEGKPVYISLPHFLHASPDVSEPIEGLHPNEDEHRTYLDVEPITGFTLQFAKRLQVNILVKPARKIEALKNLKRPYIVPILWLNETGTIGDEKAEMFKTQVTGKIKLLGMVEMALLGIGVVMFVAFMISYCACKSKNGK

In assay [1] the target is SP-R210L, long isoform of the surfactant protein A receptor SP-R210 (Myo18A) (mouse (endogenous in Raw264.7)) (UniProt Q9JMH9). Put plainly: co-IP; precipitation with affinity purified polyclonal anti-SP-R210 (recognises SP-R210L and SP-R210S) from 5 mg/mL extracts of control and SP-R210L(DN) Raw264.7 cells; lysis buffer 50 mM Tris-HCl pH 8.0, 150 mM NaCl, 1% NP-40; protein G beads, 4°C; Western blot. On the technique in general: A western blot detects proteins with antibodies after separation by electrophoresis.

The target of assay [2] is CD11b (mouse (endogenous in Raw264.7)) (UniProt P05555). Put plainly: co-IP; precipitation with monoclonal CD11b antibody from 5 mg/mL extracts of Raw264.7 cells (SP-R210 isoforms: result in control cells; TLR-2 blot of the same panel); 50 mM Tris-HCl pH 8.0, 150 mM NaCl, 1% NP-40; protein G beads, 4°C; Western blot.

As for “CD36 (from UniProt Q08857 1-472) (receptor)”, the binding result in assay [1] is listed as “no binding”.
In the case of “SP-R210L, long isoform of the surfactant protein A receptor SP-R210 (Myo18A) (from UniProt Q9JMH9-3 1-2050)”, the binding entry in assay [2] is reported as “no binding”.
